Test system: L5178Y cells
Assay: In vitro micronucleus test, flow cytometric (EMA/SYTOX) and microscopy scoring, L5178Y cells
Conditions: 0-4 hr treatments to accumulate cells in metaphase; only when particles resuspended by gentle tapping
Description: L5178Y cells were treated over a range of chemical concentrations in culture medium, one 25 cm^2 flask per concentration. During treatment, cells were at 3×10^5/ml in a volume of 20 ml per flask (this high number of cells facilitated multiple readings per flask). After a 4 hr treatment period, cells were washed one time via centrifugation at 600×g, resuspended in a volume of 40 ml culture medium, and transferred to 75 cm^2 flasks. Cells were re-incubated at 37° C. for 20 additional hrs—the equivalent of two normal doubling times.
In this case, cultures (1.5×10^5 cells/ml, 40 ml/flask) were continuously exposed to chemical over a range of concentrations. […]
Samples, stored for up to two days at 4° C., were gently tapped to resuspend the particles. […] SYTOX-associated fluorescence emission was collected in the FL1 channel (530/30 band-pass filter), and EMA-associated fluorescence was collected in the FL3 channel (670 long-pass filter). Events were triggered on FL1 fluorescence. The FCM gating strategy that was developed for this micronuclei scoring application required events to meet each of six separate criteria before they were scored as nuclei or micronuclei (see FIGS. 2A-H). The incidence of flow cytometric-scored micronuclei is expressed as frequency percent (no. micronuclei/no. nuclei×100), and are based on the acquisition of 20,000 EMA-negative nuclei per specimen. […]

In the case of `CN[C@H]1CCc2cc(OC)c(OC)c(OC)c2-c2ccc(OC)c(=O)cc21` [colcemid], the “micronuclei frequencies by flow cytometric analysis” value is reported as “baseline-like”.
